Source: PubChem BioAssay AID330 (DTP/NCI, 2004)
The list is a part of this screen's results and no random one: its compounds were picked by chemical class. Other doses and runs of a compound may be missing. T/C gives the treated animals as a percentage of the vehicle group. For survival time, this PubChem deposit counts one and a half times the control or more as active, and values a quarter to a half above the control carry no call in these data; other NCI protocols may use other cut-offs. Schedule codes are those of the source, read here as Q, the interval in days (D) or hours (H), X, the number of doses. Some T/C values are marked as having no survivor count here; that says nothing about deaths at the dose. Some doses were run more than once; the results are listed from low to high.

Tested on: P388 leukemia ip, CD2F1 mice, survival T/C
Experiment: NCI In Vivo Anticancer Drug Screen. Data for tumor model P388 Leukemia (intraperitoneal) in CD2F1 (CDF1) mice
Details: T/C endpoint: median survival time, higher T/C = longer survival
[1] = dose: 0.16 mg/kg/injection, schedule: Q01DX009 (ip), vehicle: saline + alcohol
[2] = dose: 0.31 mg/kg/injection, schedule: Q01DX009 (ip), vehicle: saline + alcohol
[3] = dose: 0.62 mg/kg/injection, schedule: Q01DX009 (ip), vehicle: saline + alcohol
[4] = dose: 0.63 mg/kg/injection, schedule: Q01DX009 (ip), vehicle: saline + alcohol
[5] = dose: 1.25 mg/kg/injection, schedule: Q01DX009 (ip), vehicle: saline + alcohol

CC1CCOC(=O)/C=C/C=C/C(=O)OC2CC3OC4C5OC5(C)C(O)CC4(COC(=O)C1O)C2(C)C31CO1 (configuration not stated)
T/C [1]: 157 % of control [survivor count not shown]
T/C [2]: 160 % of control [survivor count not shown]
T/C [3]: 166 % of control [survivor count not shown]
T/C (dose: 1.25 mg/kg/injection, schedule: Q01DX009 (ip), vehicle: saline + alcohol, evaluated on day 35): 201 % of control [survivor count not shown]
T/C (dose: 1.25 mg/kg/injection, schedule: Q01DX009 (ip), vehicle: saline + alcohol, evaluated on day 45): 150 % of control [survivor count not shown]
T/C (dose: 2.5 mg/kg/injection, schedule: Q01DX009 (ip), vehicle: saline + alcohol, evaluated on day 35): 192 % of control [survivor count not shown]
T/C (dose: 2.5 mg/kg/injection, schedule: Q01DX009 (ip), vehicle: saline + alcohol, evaluated on day 45): 175 % of control [survivor count not shown]
T/C (dose: 5.0 mg/kg/injection, schedule: Q01DX009 (ip), vehicle: saline + alcohol, evaluated on day 35): 238 % of control [survivor count not shown]
T/C (dose: 5.0 mg/kg/injection, schedule: Q01DX009 (ip), vehicle: saline + alcohol, evaluated on day 45): 222 % of control [survivor count not shown]
T/C (dose: 10.0 mg/kg/injection, schedule: Q01DX009 (ip), vehicle: saline + alcohol, evaluated on day 35): 284 % of control [survivor count not shown]
T/C (dose: 10.0 mg/kg/injection, schedule: Q01DX009 (ip), vehicle: saline + alcohol, evaluated on day 45): 203 % of control [survivor count not shown]
T/C (dose: 20.0 mg/kg/injection, schedule: Q01DX009 (ip), vehicle: saline + alcohol): 321 % of control [survivor count not shown]

CC1=CC2OC3C(OC4CCCCO4)C(O)C(C)(C2(CO)CC1)C31CO1 (configuration not stated)
T/C (dose: 0.2 mg/kg/injection, schedule: Q01DX009 (ip), vehicle: other): 103 % of control [survivor count not shown]
T/C (dose: 0.4 mg/kg/injection, schedule: Q01DX009 (ip), vehicle: other): 100 % of control [survivor count not shown]
T/C (dose: 0.8 mg/kg/injection, schedule: Q01DX009 (ip), vehicle: other): 107 % of control [survivor count not shown]
T/C (dose: 1.6 mg/kg/injection, schedule: Q01DX009 (ip), vehicle: other): 108 % of control [survivor count not shown]
T/C (dose: 3.2 mg/kg/injection, schedule: Q01DX009 (ip), vehicle: other): 98 % of control [survivor count not shown]
T/C (dose: 6.4 mg/kg/injection, schedule: Q01DX009 (ip), vehicle: other): 107 % of control [survivor count not shown]

CC1=CC2OC3CC4OC(=O)/C=C/C=C/C(=O)OCCC(C)C(O)C(=O)OCC2(CC1=O)C4(C)C31CO1 (configuration not stated)
T/C [1]: 111 % of control [survivor count not shown]
T/C [2]: 120 % of control [survivor count not shown]
T/C [4]: 112 % of control [survivor count not shown]
T/C [5]: 122 % of control [survivor count not shown]

CC(=O)OC[C@]12CCC(C)=C[C@H]1O[C@@H]1[C@H](O)[C@@H](OC(C)=O)[C@@]2(C)[C@@]12CO2
T/C (dose: 0.18 mg/kg/injection, schedule: Q01DX009 (ip), vehicle: Klucel (hydroxypropylcellulose) (HPC)): 135 % of control [survivor count not shown]
T/C (dose: 0.37 mg/kg/injection, schedule: Q01DX009 (ip), vehicle: Klucel (hydroxypropylcellulose) (HPC)): 142 % of control [survivor count not shown]
T/C (dose: 0.75 mg/kg/injection, schedule: Q01DX009 (ip), vehicle: Klucel (hydroxypropylcellulose) (HPC)): 143 % of control [survivor count not shown]
T/C (dose: 1.5 mg/kg/injection, schedule: Q01DX009 (ip), vehicle: Klucel (hydroxypropylcellulose) (HPC)): 138 % of control [survivor count not shown]
T/C (dose: 3.0 mg/kg/injection, schedule: Q01DX009 (ip), vehicle: Klucel (hydroxypropylcellulose) (HPC)): 155 % of control [survivor count not shown]
T/C (dose: 6.0 mg/kg/injection, schedule: Q01DX009 (ip), vehicle: Klucel (hydroxypropylcellulose) (HPC)): 95 % of control [survivor count not shown]

CC1=CC2OC3CC4OC(=O)/C=C/C=C/C(C(C)O)OCCC(C)C(O)C(=O)OCC2(CC1O)C4(C)C31CO1 (configuration not stated)
T/C (dose: 0.15 mg/kg/injection, schedule: Q01DX009 (ip), vehicle: saline + alcohol): 126 % of control [survivor count not shown]
T/C [2]: 138 [survivor count not shown], 144 [survivor count not shown], 150 % of control [survivor count not shown]
T/C [3]: 146 [survivor count not shown], 161 [survivor count not shown], 164 % of control [survivor count not shown]
T/C [5]: 146 [survivor count not shown], 157 [survivor count not shown], 183 % of control [survivor count not shown]
T/C (dose: 2.5 mg/kg/injection, schedule: Q01DX009 (ip), vehicle: saline + alcohol): 148 [survivor count not shown] and 161 % of control [survivor count not shown]
T/C (dose: 5.0 mg/kg/injection, schedule: Q01DX009 (ip), vehicle: saline + alcohol): 93 [survivor count not shown] and 250 % of control [survivor count not shown]
T/C (dose: 5.0 micrograms/kg/injection, schedule: Q01DX009 (ip), vehicle: saline + alcohol): 111 % of control [survivor count not shown]
T/C (dose: 10.0 micrograms/kg/injection, schedule: Q01DX009 (ip), vehicle: saline + alcohol): 110 [survivor count not shown] and 119 % of control [survivor count not shown]
T/C (dose: 20.0 micrograms/kg/injection, schedule: Q01DX009 (ip), vehicle: saline + alcohol): 114 [survivor count not shown] and 130 % of control [survivor count not shown]
T/C (dose: 40.0 micrograms/kg/injection, schedule: Q01DX009 (ip), vehicle: saline + alcohol): 124 [survivor count not shown] and 139 % of control [survivor count not shown]
T/C (dose: 80.0 micrograms/kg/injection, schedule: Q01DX009 (ip), vehicle: saline + alcohol): 133 [survivor count not shown] and 146 % of control [survivor count not shown]
T/C (dose: 160.0 micrograms/kg/injection, schedule: Q01DX009 (ip), vehicle: saline + alcohol): 147 % of control [survivor count not shown]

CC1=CC2OC3CC4OC(=O)/C=C\C=C/C5(C(C)O)OCC/C(=C/C(=O)OCC2(CC1)C4(C)C31CO1)C5O (configuration not stated)
T/C (dose: 0.25 mg/kg/injection, schedule: Q01DX005 (ip), vehicle: distilled water + Tween-80 + alcohol): 125 % of control [survivor count not shown]
T/C (dose: 0.5 mg/kg/injection, schedule: Q01DX005 (ip), vehicle: distilled water + Tween-80 + alcohol): 138 [survivor count not shown] and 144 % of control [survivor count not shown]
T/C (dose: 1.0 mg/kg/injection, schedule: Q01DX005 (ip), vehicle: distilled water + Tween-80 + alcohol): 152 [survivor count not shown] and 177 % of control [survivor count not shown]
T/C (dose: 2.0 mg/kg/injection, schedule: Q01DX005 (ip), vehicle: distilled water + Tween-80 + alcohol): 171 [survivor count not shown] and 198 % of control [survivor count not shown]

C/C1=C/C(=O)OCC23CCC4(C)OC4C2OC2CC(OC(=O)/C=C\C=C/C4OC(OC4C)C1O)C3(C)C21CO1 (configuration not stated)
T/C (dose: 0.04 mg/kg/injection, schedule: Q01DX009 (ip), vehicle: saline + alcohol): 97 % of control [survivor count not shown]
T/C [1]: 100 % of control [survivor count not shown]
T/C (dose: 0.32 mg/kg/injection, schedule: Q01DX009 (ip), vehicle: saline + alcohol): 101 % of control [survivor count not shown]
T/C [4]: 104 % of control [survivor count not shown]
T/C (dose: 1.5 mg/kg/injection, schedule: Q01DX009 (ip), vehicle: saline + alcohol): 102 % of control [survivor count not shown]
T/C (dose: 3.0 mg/kg/injection, schedule: Q01DX009 (ip), vehicle: saline + alcohol): 100 % of control [survivor count not shown]
T/C (dose: 6.0 mg/kg/injection, schedule: Q01DX009 (ip), vehicle: saline + alcohol): 101 % of control [survivor count not shown]
T/C (dose: 12.0 mg/kg/injection, schedule: Q01DX009 (ip), vehicle: saline + alcohol): 101 % of control [survivor count not shown]
